PMC5239461
No constants are given. Whether binding was seen depends on the method and setting. Binding seen in cells or lysates may run through a third protein. Some results given as binding are weak or reduced against the parent protein; the word gives no strength.

Chains of the proteins cited; added tags and fusions are not shown.
UniProt P40763: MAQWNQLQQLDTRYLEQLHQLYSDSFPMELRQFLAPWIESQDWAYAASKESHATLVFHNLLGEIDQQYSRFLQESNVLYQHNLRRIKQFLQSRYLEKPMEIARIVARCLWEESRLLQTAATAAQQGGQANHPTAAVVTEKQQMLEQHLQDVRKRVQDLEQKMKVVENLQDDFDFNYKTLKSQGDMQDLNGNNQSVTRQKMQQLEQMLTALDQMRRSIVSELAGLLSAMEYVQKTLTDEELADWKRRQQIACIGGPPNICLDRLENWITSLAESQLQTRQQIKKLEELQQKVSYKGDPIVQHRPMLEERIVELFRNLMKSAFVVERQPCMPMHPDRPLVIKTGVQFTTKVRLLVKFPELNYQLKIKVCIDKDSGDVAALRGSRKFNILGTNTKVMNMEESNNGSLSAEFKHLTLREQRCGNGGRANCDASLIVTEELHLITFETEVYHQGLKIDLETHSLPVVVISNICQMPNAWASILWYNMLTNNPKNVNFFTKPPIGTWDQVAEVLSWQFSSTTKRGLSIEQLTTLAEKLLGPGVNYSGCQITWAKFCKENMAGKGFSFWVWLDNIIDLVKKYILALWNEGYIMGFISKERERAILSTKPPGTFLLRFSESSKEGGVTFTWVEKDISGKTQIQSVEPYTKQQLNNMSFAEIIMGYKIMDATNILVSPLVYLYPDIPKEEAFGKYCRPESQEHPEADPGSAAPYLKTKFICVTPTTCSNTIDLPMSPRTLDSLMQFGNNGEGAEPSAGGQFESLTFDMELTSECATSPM
UniProt P42224: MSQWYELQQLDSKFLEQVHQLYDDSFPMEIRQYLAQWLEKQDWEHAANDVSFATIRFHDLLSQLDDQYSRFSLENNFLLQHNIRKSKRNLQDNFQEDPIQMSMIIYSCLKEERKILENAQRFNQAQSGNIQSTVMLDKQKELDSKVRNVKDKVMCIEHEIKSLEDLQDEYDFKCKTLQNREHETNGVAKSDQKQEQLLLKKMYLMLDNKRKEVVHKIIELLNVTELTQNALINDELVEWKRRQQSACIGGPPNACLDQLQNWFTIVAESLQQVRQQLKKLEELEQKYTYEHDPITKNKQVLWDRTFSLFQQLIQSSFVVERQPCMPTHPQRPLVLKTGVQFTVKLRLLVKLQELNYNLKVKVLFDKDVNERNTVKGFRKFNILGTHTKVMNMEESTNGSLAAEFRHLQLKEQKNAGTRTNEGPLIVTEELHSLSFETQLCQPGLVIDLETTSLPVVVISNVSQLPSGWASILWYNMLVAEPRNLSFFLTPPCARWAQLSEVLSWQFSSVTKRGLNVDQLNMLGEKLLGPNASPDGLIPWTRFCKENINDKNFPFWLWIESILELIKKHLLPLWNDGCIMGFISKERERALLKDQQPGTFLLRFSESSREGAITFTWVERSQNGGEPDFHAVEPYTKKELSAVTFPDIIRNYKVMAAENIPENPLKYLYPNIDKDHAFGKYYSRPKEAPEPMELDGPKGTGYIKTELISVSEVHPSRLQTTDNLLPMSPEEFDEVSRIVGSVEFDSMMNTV

Molecular target: STAT3 (human (endogenous in CRC cell lines)) (UniProt P40763)
Test: co-IP; endogenous STAT3 precipitated from CRC cell line lysates (1 mg protein) with 10 ug anti-STAT3 (sc-482) on Protein A Sepharose, overnight at 4°C, in 10 mM HEPES pH 7.5, 1 mM EDTA (5 volumes of IP buffer; low salt); cells with or without IL-6 (10 ng/ml) or IFNγ (2.5 ng/ml) for half an hour; Western blot with anti-STAT1 and anti-STAT3

- binding: binds weakly
Substance: STAT1 (from UniProt P42224 1-750)
